No constants are given. Whether binding was seen depends on the method and setting. Some entries that bind do so weakly or less than the wild type.
Legend:
[1] = target: recombinant Phl p 2 from timothy grass (timothy grass) (UniProt P43214); assay: phage panning; ELISA check
[2] = target: complete β-gal-fused rPhl p 2 allergen (96 aa) (timothy grass) [β-galactosidase: P00722]; assay: dot blot of β-gal fusion proteins

B1: Phl p 2-specific human IgE Fab, clone 94 (Fab, V domains shown)
VH: LESGPGLVKPAQTLSLSCAVSGGSIRSGGYYWSWIRQHPGKGLEWIGYIYHSGNTYYNPSLKSRIAMSVDTSENKFSLRLNSVTAADTAVYYCARLDGYTLDIWGQGTLVTVSS
VL: ELTQSPSSLSASVGDRVTISCRASQRINTYLNWYQHKPGKAPKLLIYAASSLQSGVPSRFSGSGYGTDFTLTISSLQFEDFASYYCQESLSASYTFGQGTKVEIKR
notes: Human IgE Fab (heavy chain fragment Fd plus kappa light chain) expressed from pComb3H in E. coli and used as bacterial extract; they start at the Xho I / Sac I cloning sites; also called clone 94-derived IgE Fab; rPhl p 2-specific IgE Fab
- binding [1]: binds
- binding [2]: binds

B2: Phl p 2-specific human IgE Fab, clone 60 (Fab, V domains shown)
VH: LESGPGLVKPSQTLSLTCTVSGGSIRSGGYYWSWVRQPPGKGLEWIGNIYHSGNTYYNPSLKSRITMSVDTSKNHFSLRLTSVTAADTAVYYCARSDGYTLDNWGQGTLVTVSS
VL: ELTQSPSSLSASVGDRVTITCRARQSISTYLNWYQQKPGKAPKLLIWSASNLQSGVPSRFSGSGSGTEFTLTISNLQFEDFASYYCQQSYTTLYTFGSGTKLEIKR
notes: Human IgE Fab (Fd plus kappa light chain) expressed from pComb3H in E. coli and used as bacterial extract; also called rPhl p 2-specific IgE Fab; anti-Phl p 2 Fab
- binding [1]: binds
- binding [2]: binds

B3: Phl p 2-specific human IgE Fab, clone 100 (Fab, V domains shown)
VH: LESGPGLVKPSQTLSLTCTVSGGSIRSGGYYWSWIRQPPGKGLEWIGYIYHSGNTYYNPSLKSRVTMSVDTSKNHFSLRLSSVTAADTAVYYCARSDGYTLDNWGQGTLVTVSS
VL: ELTQSPSSVSASVGDRVTITCRASQGISSWLAWYQHQPGKAPKLLIYSASSLQSGVPSRFSGSGYGTDFSLTISSLQFEDSATYYCQQANSFPYTFGQGTKVEIKR
notes: as for B2
- binding [1]: binds
- binding [2]: binds

Source: US7288381 (PHADIA, dated 2007)
